According to PMC5895705:
Results are given in words; binding and its absence hold for the method and conditions named. Some binding calls cover weakened binding; strength is not graded here.

Chains of the proteins cited; added tags and fusions are not shown. Lines headed by an entry give the natural chain unless they say otherwise; changes in a name come on top.
UniProt P0A6Y8: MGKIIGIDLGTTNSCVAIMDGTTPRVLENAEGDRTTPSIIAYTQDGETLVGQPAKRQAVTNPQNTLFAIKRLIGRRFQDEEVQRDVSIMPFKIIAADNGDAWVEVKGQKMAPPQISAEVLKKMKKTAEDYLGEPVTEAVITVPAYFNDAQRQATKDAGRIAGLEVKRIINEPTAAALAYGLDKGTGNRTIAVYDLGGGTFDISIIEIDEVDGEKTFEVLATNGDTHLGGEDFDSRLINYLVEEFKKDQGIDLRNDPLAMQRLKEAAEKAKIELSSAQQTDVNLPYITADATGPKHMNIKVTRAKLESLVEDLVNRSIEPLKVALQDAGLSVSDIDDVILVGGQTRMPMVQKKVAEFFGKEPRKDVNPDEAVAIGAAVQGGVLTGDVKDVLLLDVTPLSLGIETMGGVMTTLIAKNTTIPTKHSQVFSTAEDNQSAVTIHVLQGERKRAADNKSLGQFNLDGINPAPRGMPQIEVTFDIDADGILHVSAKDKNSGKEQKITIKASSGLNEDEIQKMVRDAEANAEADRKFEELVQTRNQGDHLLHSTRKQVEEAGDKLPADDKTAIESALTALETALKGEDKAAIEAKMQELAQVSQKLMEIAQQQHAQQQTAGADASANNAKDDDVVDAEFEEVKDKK
UniProt P63284: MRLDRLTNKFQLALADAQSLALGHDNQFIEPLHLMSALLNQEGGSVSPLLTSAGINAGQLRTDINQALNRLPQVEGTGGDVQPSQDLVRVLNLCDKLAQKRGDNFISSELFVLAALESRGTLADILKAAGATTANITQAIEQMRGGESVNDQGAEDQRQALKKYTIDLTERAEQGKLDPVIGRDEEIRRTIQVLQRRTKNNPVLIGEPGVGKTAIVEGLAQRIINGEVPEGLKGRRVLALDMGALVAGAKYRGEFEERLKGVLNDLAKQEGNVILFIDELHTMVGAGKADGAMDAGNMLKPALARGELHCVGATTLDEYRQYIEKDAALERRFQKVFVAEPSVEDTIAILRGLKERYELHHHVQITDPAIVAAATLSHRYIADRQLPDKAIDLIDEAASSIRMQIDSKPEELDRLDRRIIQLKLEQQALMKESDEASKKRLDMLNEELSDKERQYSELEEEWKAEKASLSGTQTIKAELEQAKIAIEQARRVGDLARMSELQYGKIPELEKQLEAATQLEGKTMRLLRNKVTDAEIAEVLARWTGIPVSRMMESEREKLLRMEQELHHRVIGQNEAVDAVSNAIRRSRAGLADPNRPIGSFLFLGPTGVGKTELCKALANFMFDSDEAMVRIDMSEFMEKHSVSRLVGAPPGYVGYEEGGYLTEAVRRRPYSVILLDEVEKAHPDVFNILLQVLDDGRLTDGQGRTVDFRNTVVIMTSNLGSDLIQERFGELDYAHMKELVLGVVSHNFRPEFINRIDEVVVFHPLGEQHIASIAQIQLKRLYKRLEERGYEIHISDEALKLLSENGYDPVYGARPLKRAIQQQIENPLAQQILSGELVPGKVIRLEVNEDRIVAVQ

Key:
[1] = target: DnaK, wild type (E. coli) (UniProt P0A6Y8); test: co-sedimentation; 1 µM G6PDH50 aggregates, 3 mM ATP, 0.7 µM DnaJ, 3.5 µM DnaK and 5 µM ΔN/ΔM-ClpB, 10 min in refolding buffer, centrifuged; pellets on 4-12% Bis-Tris NuPAGE; ClpB in the pellet compared with and without DnaK; native G6PDH as control; both purified
[2] = target: DnaK, wild type (E. coli) (UniProt P0A6Y8); test: co-sedimentation; G6PDH50 aggregates (1 μM) incubated 10 min at 30 °C in refolding buffer with DnaJ, 3.5 μM wt DnaK or variant, with or without 5 μM wt or mutant ClpB, 3 mM ATP with regenerating system, no GrpE; 122,000 x g, 40 min, 4 °C; pellets on SDS-PAGE or NuPAGE, densitometry, controls with native G6PDH subtracted; both purified

| Substance | binding [1] | binding [2] |
| --- | --- | --- |
| ΔN/ΔM-ClpB (ClpB Δ(1–142;410–520)) (from UniProt P63284 143-857) (domain or fragment) | no binding (tested: 5 µM ΔN/ΔM-ClpB, 3.5 µM DnaK) | – |
| ClpB heterohexamers of wt and ΔM-ClpB subunits (from UniProt P63284 1-857; P63284 1-857) (complex) | – | binds |
